From publication PMC12543280 come the findings set out here.

Sequences of proteins named here, by UniProt entry; tags and fusion partners are left off.
UniProt P48727: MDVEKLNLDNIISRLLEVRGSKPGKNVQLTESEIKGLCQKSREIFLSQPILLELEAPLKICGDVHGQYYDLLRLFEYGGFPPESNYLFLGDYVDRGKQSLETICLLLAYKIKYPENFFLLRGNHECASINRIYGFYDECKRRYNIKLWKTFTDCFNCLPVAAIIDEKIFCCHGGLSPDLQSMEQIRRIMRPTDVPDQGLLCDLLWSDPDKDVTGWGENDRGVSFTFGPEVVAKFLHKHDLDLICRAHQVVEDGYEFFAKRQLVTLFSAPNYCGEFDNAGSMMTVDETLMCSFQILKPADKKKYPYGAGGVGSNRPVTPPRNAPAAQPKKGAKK

Experiment [1] has as its target T1, C. elegans APE-1(H591Y), endogenous, tagged with 3xflag (and GFP) (C. elegans) (UniProt Q9XVN3).
T1 sequence: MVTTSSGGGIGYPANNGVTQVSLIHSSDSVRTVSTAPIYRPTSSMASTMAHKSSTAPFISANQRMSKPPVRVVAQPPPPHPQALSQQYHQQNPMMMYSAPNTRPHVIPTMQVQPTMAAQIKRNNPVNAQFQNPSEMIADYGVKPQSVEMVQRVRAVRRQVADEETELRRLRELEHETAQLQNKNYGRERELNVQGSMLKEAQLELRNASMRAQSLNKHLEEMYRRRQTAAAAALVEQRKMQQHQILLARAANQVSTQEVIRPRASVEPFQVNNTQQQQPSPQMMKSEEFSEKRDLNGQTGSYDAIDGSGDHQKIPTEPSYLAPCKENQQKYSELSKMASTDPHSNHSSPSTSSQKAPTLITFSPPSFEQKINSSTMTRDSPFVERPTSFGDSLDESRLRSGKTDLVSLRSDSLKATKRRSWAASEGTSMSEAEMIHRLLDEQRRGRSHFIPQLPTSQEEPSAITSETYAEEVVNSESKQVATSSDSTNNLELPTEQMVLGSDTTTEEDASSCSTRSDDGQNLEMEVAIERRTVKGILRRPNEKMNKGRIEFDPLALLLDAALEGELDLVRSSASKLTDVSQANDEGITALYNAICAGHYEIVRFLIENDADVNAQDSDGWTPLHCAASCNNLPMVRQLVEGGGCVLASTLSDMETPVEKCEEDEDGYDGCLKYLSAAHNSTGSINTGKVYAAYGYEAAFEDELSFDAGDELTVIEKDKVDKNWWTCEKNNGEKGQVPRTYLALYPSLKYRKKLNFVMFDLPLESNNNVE
As to the kind of experiment: affinity purification with mass spectrometry; 3xflag immunoprecipitation (M2 magnetic flag beads, elution with 3xflag peptide) from whole-worm lysates; MudPIT analysis.

For experiment [2], the target named is T2, C. elegans APE-1(N583K), endogenous, tagged with 3xflag (and GFP) (C. elegans) (UniProt Q9XVN3).
T2 sequence: T1 sequence with N583K, Y591H
The experiment is described as above.

Numbering of substitutions follows the chain as printed. Results are given in words; binding and its absence hold for the method and conditions named. Binding seen in cells or lysates may run through a third protein. A yes stands for co-enrichment or nearness to the bait. Other partners may have been found. Where a sequence is shown, tags or fusion partners need not be part of it.

Take “C. elegans GSP-2 (PP1 homolog) in whole-worm lysates of the MudPIT experiment (from UniProt P48727 1-333) (enzyme)”: the binding result in experiment [1] and in experiment [2] was “binds” in each case.
